Taken from: PubChem BioAssay AID493246 (Drosophila RNAi Screening Center, 2011)
Aim: 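Identify essential fly genes by loss of cell viability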 (primary screen). System: Drosophila Kc and S2R+ cells. Knock-down reagent: long dsRNA against Drosophila genes. Measured: 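Raw, unnormalised count of remaining cells in each well; per-plate z-scores of cell number underlie the calls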. Scale: Kc cell number and S2R+ cell number: higher = more cells remaining. Call rule: 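Active when the per-plate z-score of cell number is 3 or more in the direction of fewer cells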.
The screen tested about 21,000 reagents; shown is a random part of those with a known target gene and a result. Over the whole deposit, 429 (2%) got an active call. 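Values are raw and not normalised between plates; calls rest on per-plate z-scores that were not deposited.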 The record does not give: the amount of reagent, the time to read-out.

no.	predicted target	dsRNA	Kc cell number, rep 1	Kc cell number, rep 2	S2R+ cell number, rep 1	S2R+ cell number, rep 2	activity call
1	CG4872 (GeneID 32676)	DRSC19921	1.44e6	1.54e6	1.06e6	1.19e6	inactive
2	mRpL54 (GeneID 37389)	DRSC04545	1.35e6	1.42e6	9.22e5	1.06e6	inactive
3	CG14177 (retired record) (GeneID 39113)	DRSC10176	1.29e6	1.41e6	1.23e6	1.30e6	inactive
4	Atg2 (GeneID 38344)	DRSC08273	1.22e6	1.38e6	1.08e6	1.06e6	inactive
5	Gr43a (GeneID 35655)	DRSC06658	1.49e6	1.60e6	1.32e6	1.42e6	inactive
6	Diedel (GeneID 43474)	DRSC14317	1.71e6	1.73e6	1.06e6	1.19e6	inactive
7	CG13321 (GeneID 36430)	DRSC06358	1.43e6	1.49e6	1.21e6	1.29e6	inactive
8	MME1 (GeneID 33987)	DRSC02714	1.36e6	1.53e6	2.89e5	2.29e5	inactive
9	CG5984 (GeneID 43281)	DRSC15930	1.48e6	1.53e6	1.11e6	1.21e6	inactive
10	Jra (GeneID 36057)	DRSC07447	1.88e6	1.91e6	1.24e6	1.28e6	inactive
11	CG12784 (GeneID 41903)	DRSC14539	1.46e6	1.52e6	1.21e6	1.35e6	inactive
12	CG7882 (GeneID 35520)	DRSC04899	1.56e6	1.57e6	1.25e6	1.33e6	inactive
13	Pus10 (GeneID 33178)	DRSC00629	1.13e6	1.23e6	5.24e5	6.68e5	inactive
14	CG4098 (GeneID 39854)	DRSC10399	1.32e6	1.63e6	1.35e6	1.48e6	inactive
15	CG11307 (GeneID 40400)	DRSC11648	1.62e6	1.62e6	1.42e6	1.37e6	inactive
16	Hat1 (GeneID 40716)	DRSC12298	1.36e6	1.41e6	1.28e6	1.38e6	inactive
17	Strn-Mlck (GeneID 36753)	DRSC05032	1.34e6	1.40e6	1.19e6	1.21e6	inactive
18	Strn-Mlck (GeneID 36753)	DRSC05598	5.05e5		7.26e5		inactive
19	Strn-Mlck (GeneID 36753)	DRSC07471	1.56e6	1.64e6	1.17e6	1.33e6	inactive
20	PGS1 (GeneID 42254)	DRSC16304	1.18e6	1.14e6	1.09e6	1.21e6	inactive
21	pcm (GeneID 32935)	DRSC20361	1.56e6	1.68e6	1.06e6	1.15e6	inactive
22	CG10013 (GeneID 41494)	DRSC14175	1.46e6	1.53e6	1.23e6	1.30e6	inactive
23	CG7183 (GeneID 42181)	DRSC16210	1.56e6	1.64e6	1.26e6	1.32e6	inactive
24	Muc12Ea (GeneID 32384)	DRSC19937	1.56e6	1.71e6	1.05e6	1.25e6	inactive
25	CG8888 (GeneID 36293)	DRSC07294	1.54e6	1.59e6	1.12e6	1.11e6	inactive
26	CG8888 (GeneID 36293)	DRSC07295	1.65e6	1.71e6	1.25e6	1.36e6	inactive
27	CG7781 (GeneID 34143)	DRSC03068	1.76e6	1.81e6	1.22e6	1.36e6	inactive
28	Damm (GeneID 36266)	DRSC07393	1.70e6	1.79e6	1.41e6	1.50e6	inactive
29	RpL4 (GeneID 43349)	DRSC16833	3.48e5		5.55e5		inactive
30	CG42675 (GeneID 40722)	DRSC12157	1.56e6	1.62e6	1.39e6	1.44e6	inactive
31	HDAC6 (GeneID 32461)	DRSC20252	5.47e5		8.45e5		inactive
32	CG9686 (GeneID 31921)	DRSC18439	1.55e6	1.55e6	1.03e6	1.16e6	inactive
33	COX7AL (GeneID 40995)	DRSC15313	1.57e6	1.77e6	1.33e6	1.45e6	inactive
34	Rrp1 (GeneID 33500)	DRSC00784	1.62e6	1.63e6	1.12e6	1.29e6	inactive
35	CG4229 (GeneID 39840)	DRSC10407	1.61e6	1.68e6	1.26e6	1.29e6	inactive
36	CG14269 (GeneID 31312)	DRSC17912	1.53e6	1.56e6	1.10e6	1.24e6	inactive
37	Fim (GeneID 32721)	DRSC20243	1.44e6	1.51e6	1.05e6	1.23e6	inactive
38	pira (GeneID 32229)	DRSC19494	1.51e6	1.49e6	9.17e5	1.03e6	inactive
39	dany (GeneID 246593)	DRSC04141	1.51e6	1.63e6	1.29e6	3.95e5	inactive
40	CG4630 (GeneID 36458)	DRSC06874	1.34e6	1.45e6	9.15e5	1.01e6	inactive
41	ru (GeneID 44856)	DRSC08258	1.42e6	1.28e6	9.92e5	1.28e6	inactive
42	Nup50 (GeneID 35784)	DRSC06827	1.29e6	1.39e6	1.09e6	1.11e6	inactive
43	Tbc1d8-9 (GeneID 40361)	DRSC11820	1.59e6	1.55e6	1.46e6	1.46e6	inactive
44	CG33325 (GeneID 2768664)	DRSC12699	1.56e6	1.49e6	1.11e6	1.24e6	inactive
45	CG42565 (GeneID 37598)	DRSC04154	1.60e6	1.66e6	1.38e6	1.40e6	inactive
46	CdGAPr (GeneID 35267)	DRSC03289	1.62e6	1.66e6	1.24e6	2.46e5	inactive
47	CG33143 (GeneID 37583)	DRSC04151	1.56e6	1.38e6	1.32e6	1.29e6	inactive
48	CG33143 (GeneID 37583)	DRSC04454	1.49e6	1.53e6	1.26e6	1.28e6	inactive
49	CG30159 (GeneID 35611)	DRSC04981	1.33e6	1.42e6	1.18e6	1.26e6	inactive
50	Abi (GeneID 41718)	DRSC14099	1.38e6	1.47e6	1.21e6	1.21e6	inactive
51	SmydA-9 (GeneID 31859)	DRSC17814	1.56e6	1.61e6	1.03e6	1.18e6	inactive
52	CG13760 (GeneID 31237)	DRSC18617	1.50e6	1.52e6	1.02e6	1.12e6	inactive
53	CG11585 (GeneID 32365)	DRSC19410	1.55e6	1.51e6	1.06e6	1.14e6	inactive
54	CG14277 (GeneID 34129)	DRSC02380	1.45e6	1.55e6	1.19e6	1.28e6	inactive
55	RhoGAP92B (GeneID 42371)	DRSC14507	1.17e6	1.18e6	1.10e6	1.17e6	inactive
56	RhoGAP92B (GeneID 42371)	DRSC15637	1.12e6	1.16e6	1.15e6	1.18e6	inactive
57	lncRNA:bxd (GeneID 3772220)	DRSC13176	1.41e6	1.63e6	1.05e6	1.20e6	inactive
58	CG14341 (GeneID 33301)	DRSC00371	1.81e6	1.85e6	1.13e6	1.30e6	inactive
59	sut4 (GeneID 36055)	DRSC07703	1.31e6	1.35e6	1.13e6	1.27e6	inactive

In a second layout: entries from further up
CG5984 (GeneID 43281) [DRSC15930] — Kc cell number, rep 1 = 1.48e6; Kc cell number, rep 2 = 1.53e6; S2R+ cell number, rep 1 = 1.11e6; S2R+ cell number, rep 2 = 1.21e6; activity call = inactive
Jra (GeneID 36057) [DRSC07447] — Kc cell number, rep 1 = 1.88e6; Kc cell number, rep 2 = 1.91e6; S2R+ cell number, rep 1 = 1.24e6; S2R+ cell number, rep 2 = 1.28e6; activity call = inactive
CG12784 (GeneID 41903) [DRSC14539] — Kc cell number, rep 1 = 1.46e6; Kc cell number, rep 2 = 1.52e6; S2R+ cell number, rep 1 = 1.21e6; S2R+ cell number, rep 2 = 1.35e6; activity call = inactive
CG7882 (GeneID 35520) [DRSC04899] — Kc cell number, rep 1 = 1.56e6; Kc cell number, rep 2 = 1.57e6; S2R+ cell number, rep 1 = 1.25e6; S2R+ cell number, rep 2 = 1.33e6; activity call = inactive
